Measurements reported in PubChem BioAssay AID504784 (Drosophila RNAi Screening Center, 2011)

Aim: 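Fly genes whose silencing alters how much lipid cells keep in droplets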 (primary screen)
Cell system: Drosophila Kc167 embryonic cells
Knock-down reagent: long dsRNA against Drosophila genes, about 250 ng dsRNA per well
Timing: 4 days
Treatment: cells fed 400 µM oleic acid bound to BSA
Detection: 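Cells imaged and segmented; ratio of lipid droplet area to nuclear area, log-transformed, then normalised as a B-score over the screen; higher means more stored lipid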
Scale: droplet/nuclear area B-score: higher = more stored lipid (overstorage)
The deposit covers about 17,000 reagents; this is a random part of those with a known target gene and a result. 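Each column is one replicate's B-score; the combined score over replicates was not deposited, so single values may mislead.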

| gene knocked down | amplicon | droplet/nuclear area B-score, replicate 1 | droplet/nuclear area B-score, replicate 2 | droplet/nuclear area B-score, replicate 3 |
| --- | --- | --- | --- | --- |
| Tbc1d22 (GeneID 42498) | DRSC15867 | 0.679 | 0.079 | – |
| COX7A (GeneID 50002) | DRSC16514 | 5.65 | 4.98 | – |
| Mesh1 (GeneID 43456) | DRSC14433 | -0.0592 | 2 | – |
| GckIII (GeneID 42064) | DRSC15729 | -0.0415 | 0.0619 | – |
| CG5539 (GeneID 37766) | DRSC04510 | 0.737 | 0.608 | – |
| CG6470 (GeneID 32840) | DRSC19994 | 0.0611 | 1.35 | – |
| CG32074 (GeneID 317842) | DRSC22246 | 0.491 | 1.55 | – |
| Acp53C14b (GeneID 36873) | DRSC06569 | 0.292 | -0.00217 | – |
| CG7367 (GeneID 34094) | DRSC03049 | -0.00553 | 1.03 | – |
| CG10920 (GeneID 31688) | DRSC17765 | -0.712 | -0.391 | – |
| CG7231 (GeneID 34086) | DRSC03034 | 1.88 | -0.583 | – |
| CG6118 (GeneID 41884) | DRSC15968 | 1.7 | 3.31 | – |
| CG6118 (GeneID 41884) | DRSC23197 | -1.35 | -2.26 | – |
| Tom70 (GeneID 34618) | DRSC02990 | – | -1.16 | -1.01 |
| CG15414 (GeneID 33570) | DRSC00429 | -0.667 | 0.237 | – |
| CG15414 (GeneID 33570) | DRSC22353 | 0.00151 | 0.61 | – |
| CG17047 (GeneID 36478) | DRSC06648 | -1.11 | -0.061 | – |
| RNASEK (GeneID 3355016) | DRSC21641 | 2.28 | 1.86 | – |
| SmB (GeneID 34426) | DRSC03437 | -3.13 | -2.45 | – |
| CG7791 (GeneID 35511) | DRSC04891 | -0.169 | -0.944 | – |
| CG32071 (GeneID 39246) | DRSC22298 | 0.287 | 0.46 | – |
| Pep (GeneID 45961) | DRSC11252 | -2.35 | -2.59 | -1.52 |
| CG13067 (GeneID 39785) | DRSC09950 | 1.61 | 0.56 | – |
| CG18557 (GeneID 33483) | DRSC00524 | -0.664 | -0.674 | – |
| CG32066 (GeneID 39206) | DRSC10652 | -2.32 | 0.111 | – |
| CG32066 (GeneID 39206) | DRSC10653 | 0.514 | -0.511 | – |
| Cp7Fa (GeneID 3885650) | DRSC18032 | 0.0642 | -0.189 | – |
| Cp7Fa (GeneID 3885650) | DRSC18033 | -0.415 | -1.84 | – |
| Rpt3R (GeneID 41190) | DRSC16501 | 0.0612 | 1.1 | – |
| Qtzl (GeneID 318990) | DRSC01221 | 1.54 | 1.44 | – |
| CG15376 (retired record) (GeneID 31354) | DRSC18046 | 1.32 | 1.84 | – |
| RpS19b (GeneID 42830) | DRSC15773 | 5.41 | 1.61 | – |
| noc (GeneID 34847) | DRSC03580 | 0.934 | 0.0681 | – |
| Cyp311a1 (GeneID 32170) | DRSC20239 | -0.151 | -0.00119 | 0.427 |
| HHEX (GeneID 42495) | DRSC16186 | -0.131 | 0.514 | – |
| CG31798 (GeneID 318946) | DRSC01702 | -1.09 | 1.07 | – |
| CG11109 (GeneID 40507) | DRSC11633 | -0.029 | -1.16 | -1.25 |
| CG14762 (GeneID 35768) | DRSC05073 | 0.459 | 0.061 | – |
| CG14762 (GeneID 35768) | DRSC06496 | 0.809 | 3.44 | – |
| CG9259 (GeneID 35372) | DRSC03174 | -0.376 | -0.382 | – |
| CG33493 (GeneID 2768994) | DRSC10642 | -0.49 | -0.858 | – |
| CG42741 (GeneID 37654) | DRSC04593 | -2.26 | -0.167 | – |
| CG42741 (GeneID 37654) | DRSC22045 | 3.09 | -1.33 | – |
| Prosalpha4T2 (GeneID 37910) | DRSC04643 | 0.576 | -0.514 | – |
| ix (GeneID 45881) | DRSC06325 | 1.41 | -0.592 | – |
| CG12091 (GeneID 38177) | DRSC08251 | 0.38 | 0.454 | – |
| CG6962 (GeneID 41436) | DRSC16153 | -0.0699 | 0.727 | – |
| Rab5 (GeneID 33418) | DRSC00777 | 0.792 | 0.392 | – |
| sbm (GeneID 32397) | DRSC20185 | 0.194 | -0.0376 | – |
| mah (GeneID 42988) | DRSC14645 | -0.222 | 0.438 | – |
| CG3328 (GeneID 37871) | DRSC04357 | -1.58 | -0.961 | – |
| CG8788 (GeneID 35932) | DRSC07267 | 0.653 | -0.099 | – |
| Est-6 (GeneID 39392) | DRSC11162 | -0.216 | 0.565 | – |
| Jhbp3 (GeneID 40611) | DRSC12247 | 0.00614 | 1.07 | – |
| VhaM9.7-b (GeneID 40389) | DRSC11841 | -0.272 | -0.00504 | – |
| unc79 (GeneID 42310) | DRSC15746 | -0.29 | -3.86 | – |

Looked up above.
Value of CG42741 (GeneID 37654) [DRSC22045] under “droplet/nuclear area B-score, replicate 2”: -1.33
CG42741 (GeneID 37654) [DRSC04593], droplet/nuclear area B-score, replicate 2: -0.167
Value of VhaM9.7-b (GeneID 40389) [DRSC11841] under “droplet/nuclear area B-score, replicate 1”: -0.272
CG32066 (GeneID 39206) [DRSC10653], droplet/nuclear area B-score, replicate 2 = -0.511
Prosalpha4T2 (GeneID 37910) [DRSC04643], droplet/nuclear area B-score, replicate 2: -0.514
For “droplet/nuclear area B-score, replicate 1”, CG15376 (retired record) (GeneID 31354) [DRSC18046] shows 1.32
